These are yes or no findings as the source states them, for the method shown. Binding calls can cover weak binding; strength is not graded here.
Assays:
[1] = biological target: YPet-Mona; assay: two-colour flow cytometry, 40 nM YPet-Mona alone or with 100 nM SA-PE
[2] = biological target: YPet-Mona; assay: two-colour flow cytometry, SA-PE and YPet-Mona
[3] = biological target: YPet-Mona; assay: two-colour flow cytometry, SA-PE and YPet-mona

binding [1] | binding [2] | binding [3] | Binder
binds | binds | binds | eCPX-nSApep-linker-cP2 (protein) GQSGQAECHPQGPPCIEGRKGGGSGGGSGGGSGGGSGGGSGGQSGQSGDYNKNQYYGITAGPAYRINDWASIYGVVGVGYGKFQTTEYPTYKHDTSDYGFSYGAGLQFNPMENVALDFSYEQSRIRSVDVGTWILSVGYRFGSKSRRATSTVTGGYAQSDAQGQMNKMGGFNLKYRYEEDNSPLGVIGSFTYTEKSRTASGGQSGQPAPSIDRSTKPPL
binds | – | – | eCPX-nSApep-cP2 (protein) GQSGQAECHPQGPPCIEGRKGGQSGQSGDYNKNQYYGITAGPAYRINDWASIYGVVGVGYGKFQTTEYPTYKHDTSDYGFSYGAGLQFNPMENVALDFSYEQSRIRSVDVGTWILSVGYRFGSKSRRATSTVTGGYAQSDAQGQMNKMGGFNLKYRYEEDNSPLGVIGSFTYTEKSRTASGGQSGQPAPSIDRSTKPPL

Source: patent publication US20160010082A1
